Where two headings read alike, the source gives them in different places. Results are given in words; binding and its absence hold for the method and conditions named. Binding seen in cells or lysates may run through a third protein. Some entries that bind do so weakly or less than the wild type. Sequences can lack the tags named with a protein.
Tests used:
[1] = target: T1, sodium/iodide symporter (NIS) tagged with LgBiT (human) (UniProt Q92911); assay: split reporter
T1 sequence: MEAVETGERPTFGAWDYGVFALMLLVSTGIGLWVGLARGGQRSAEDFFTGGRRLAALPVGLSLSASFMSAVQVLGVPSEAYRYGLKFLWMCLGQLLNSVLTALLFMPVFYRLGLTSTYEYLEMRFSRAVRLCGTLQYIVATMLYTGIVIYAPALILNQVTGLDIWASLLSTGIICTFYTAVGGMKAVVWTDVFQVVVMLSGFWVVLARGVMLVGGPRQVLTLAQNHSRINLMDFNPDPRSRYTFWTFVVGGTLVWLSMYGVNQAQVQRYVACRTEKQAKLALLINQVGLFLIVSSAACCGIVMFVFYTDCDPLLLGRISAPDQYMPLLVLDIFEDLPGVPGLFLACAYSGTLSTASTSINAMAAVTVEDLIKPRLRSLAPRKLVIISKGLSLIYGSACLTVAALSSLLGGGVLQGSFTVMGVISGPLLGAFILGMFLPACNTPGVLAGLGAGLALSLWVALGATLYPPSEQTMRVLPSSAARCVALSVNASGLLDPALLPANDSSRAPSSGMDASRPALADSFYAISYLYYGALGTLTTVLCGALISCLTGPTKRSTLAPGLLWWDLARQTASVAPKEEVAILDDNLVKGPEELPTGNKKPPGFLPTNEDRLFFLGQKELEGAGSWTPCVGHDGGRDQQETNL

[2] = target: T1, sodium/iodide symporter (NIS) tagged with LgBiT (human); assay: split reporter; remark: listed apart in the source

binding [1]: binds
binding [2]: binds
B1: PTTG1 Binding Factor (PBF) tagged with SmBiT (protein, UniProt P53801 33-180)
chain: QEPPGAACSQNTNKTCEECLKNVSCLWCNTNKACLDYPVTSVLPPASLCKLSSARWGVCWVNFEALIITMSVVGGTLLLGIAICCCCCCRRKRSRKPDRSEEKAMREREERRIRQEERRAEMKTRHDEIRKKYGLFKEENPYARFENN
